The target in the experiment is T1, Ste4-GFP (endogenous) (S. pombe) (UniProt P36622).
T1 sequence: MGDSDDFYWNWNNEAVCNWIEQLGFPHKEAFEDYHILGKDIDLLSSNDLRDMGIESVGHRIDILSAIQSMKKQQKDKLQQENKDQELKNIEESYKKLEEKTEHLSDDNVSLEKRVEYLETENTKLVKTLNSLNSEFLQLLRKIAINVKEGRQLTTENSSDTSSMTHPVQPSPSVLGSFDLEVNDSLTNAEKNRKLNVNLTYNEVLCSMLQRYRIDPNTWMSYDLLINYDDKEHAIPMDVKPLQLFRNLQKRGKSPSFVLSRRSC
Kind of experiment: affinity purification with mass spectrometry; endogenous Ste4-GFP, or GFP as negative control, immunoprecipitated from mating cell lysates; bead eluate analysed by mass spectrometry; three co-immunoprecipitations.

The values below come from article PMC13144348.

Results are given in words; binding and its absence hold for the method and conditions named. In cells and extracts the contact can be indirect. These calls come from enrichment with a bait or labelling near it, and not all partners need be listed. Sequences can lack the tags named with a protein.

B1: MAP3K^Byr2 (endogenous) (protein, UniProt P28829 1-659)
chain: MEYYTSKEVAEWLKSIGLEKYIEQFSQNNIEGRHLNHLTLPLLKDLGIENTAKGKQFLKQRDYLREFPRPCILRFIACNGQTRAVQSRGDYQKTLAIALKKFSLEDASKFIVCVSQSSRIKLITEEEFKQICFNSSSPERDRLIIVPKEKPCPSFEDLRRSWEIELAQPAALSSQSSLSPKLSSVLPTSTQKRSVRSNNAKPFESYQRPPSELINSRISDFFPDHQPKLLEKTISNSLRRNLSIRTSQGHNLGNFGQEILPRSSRRARPSELVCPLSSLRISVAEDVNRLPRIDRGFDPPLTVSSTQRISRPPSLQKSITMVGVEPLYQSNGNEKSSKYNVFSESAHGNHQVLSFSPGSSPSFIEQPSPISPTSTTSEDTNTLEEDTDDQSIKWIRGALIGSGSFGQVYLGMNASSGELMAVKQVILDSVSESKDRHAKLLDALAGEIALLQELSHEHIVQYLGSNLNSDHLNIFLEYVPGGSVAGLLTMYGSFEETLVKNFIKQTLKGLEYLHSRGIVHRDIKGANILVDNKGKIKISDFGISKKLELNSTSTKTGGARPSFQGSSFWMAPEVVKQTMHTEKTDIWSLGCLVIEMLTSKHPYPNCDQMQAIFRIGENILPEFPSNISSSAIDFLEKTFAIDCNLRPTASELLSHPFVS
Consider B1, for which the binding result was “binds”.
